Results published in PubChem BioAssay AID2417 (National Center for Advancing Translational Sciences (NCATS), 2010).
The whole screen tested about 140,000 compounds, of which about 4,300 (3.1%) were called active. This list was built around the results that the source calls inconclusive (neither active nor inactive); the mix of calls is not that of the screen.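 How the source made its calls: active means readout at or below -70, meaning at least 70% loss of cells showing the perinucleolar compartment, a nuclear body marking cancer cells; inconclusive means readout between -30 and a set limit; inactive means the rest.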

Test: High Content Assay for Compounds that inhibit the Assembly of the Perinucleolar Compartment;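 further: plate controls were DMSO wells for no effect and camptothecin positive control wells for full effect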
Conditions: PC3M PTB-GFP, PNC prevalence imaging, 16 h; at 10 µM; hits give low values
Outline: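 Compounds are pinned in duplicate onto adhered PC3M cells stably expressing GFP-tagged PTB and incubated 16 h at 37 C. Cells are then fixed, nuclei stained with Hoechst, and PNC-positive cells counted.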
With `CN(c1ccc(OCc2nnc(-c3ccccc3)o2)cc1)S(=O)(=O)c1ccccc1` the activity change (PNC), negative = inhibition was inconclusive: -34.8%. With `O=C(COC(=O)c1cccs1)NCc1ccccc1` the activity change (PNC), negative = inhibition was inconclusive: -49.8%. With `COC(=O)c1ccc(NC(=O)C2CCCN2S(=O)(=O)c2ccc(OC)cc2)cc1` (configuration not stated) the activity change (PNC), negative = inhibition was inconclusive: -39.9%. With `Cc1ccc(SCC(=O)NCCN2C(=O)CSC2=O)c(C)c1` the activity change (PNC), negative = inhibition was active: -100%. In the case of `CCN(CC)S(=O)(=O)c1cccc(C(=O)N2CCCCC2)c1`, the activity change (PNC), negative = inhibition was inconclusive: -44.8%. In the case of `Cc1ccc2c(c1)C(O)(c1c(C)[nH]c3ccccc13)C(=O)N2` (configuration not stated), the activity change (PNC), negative = inhibition was inconclusive: -54.9%. In the case of `CCc1ccc(N2C(=O)CN(Cc3cc(OC)c(OC)c(OC)c3)C2=S)cc1`, the activity change (PNC), negative = inhibition was active: -81.5%. With `COC1=C(Nc2ccc(O)cc2)C(=O)c2ccccc2C1=O` the activity change (PNC), negative = inhibition was inactive: 26.6%. With `COc1ccc(S(=O)(=O)N2CCSC2c2ccc(OC)c(OC)c2)cc1` (configuration not stated) the activity change (PNC), negative = inhibition was inactive: 14.6%. With `CCOC(=O)c1ccccc1NC(=O)CSc1nc2c(c(=O)n(C)c(=O)n2C)n1C` the activity change (PNC), negative = inhibition was inconclusive: -62.9%. With `CCCCn1nnc(NC(=O)c2sc3cc(Cl)ccc3c2Cl)n1` the activity change (PNC), negative = inhibition was inactive: -3.51%. For `Cc1cc(C)c(C)c(OCc2nc(-c3cccnc3)no2)c1`, the activity change (PNC), negative = inhibition was inconclusive: -50.5%. In the case of `COc1cccc(-n2c(SCC(=O)OC(C)C)nnc2-c2cccnc2)c1`, the activity change (PNC), negative = inhibition was inconclusive: -36.1%. For `N/C(Cc1ccc([N+](=O)[O-])cc1)=N\OC(=O)c1ccccc1Br`, the activity change (PNC), negative = inhibition was inactive: -27.9%. In the case of `CCCC1=NN2C(=N)/C(=C\c3cc(C)n(-c4cc(C)cc(C)c4)c3C)C(=O)N=C2S1`, the activity change (PNC), negative = inhibition was inconclusive: -38.4%. In the case of `C/C(N)=C(/C#N)C(=O)CSc1nc2ccccc2c(=O)n1-c1ccccc1C`, the activity change (PNC), negative = inhibition was inactive: -22%. For `COc1cccc(C(=O)Nc2ccc3c(c2)C(=O)N(CCC(=O)O)C3=O)c1`, the activity change (PNC), negative = inhibition was inconclusive: -64.5%. With `COc1ccc(-c2cc(C(=O)N3CCc4ccccc4C3)no2)cc1OC` the activity change (PNC), negative = inhibition was inactive: 43.1%. For `CCc1ccc2nc(N3C(=O)c4oc5ccccc5c(=O)c4C3c3ccc(OC)c(OC)c3)sc2c1` (configuration not stated), the activity change (PNC), negative = inhibition was inconclusive: -37.6%. In the case of `COc1cc2c(cc1OC)CN(C(=O)CSc1nc3[nH]ncc3c(=O)n1-c1ccccc1)CC2`, the activity change (PNC), negative = inhibition was inactive: 14%. In the case of `O=C(O)C1C2CCCCC2=C2CCCCC2C1C(=O)O` (configuration not stated), the activity change (PNC), negative = inhibition was inconclusive: -32.8%. In the case of `Cn1c(=O)[nH]c(=O)c2c1nc(CN1CCN(c3ccccc3F)CC1)n2CCCc1ccccc1`, the activity change (PNC), negative = inhibition was inconclusive: -60.3%. In the case of `CCCCCCCC#Cc1ccccc1/C=N/S(=O)c1ccc(C)cc1` (configuration not stated), the activity change (PNC), negative = inhibition was inactive: 11.6%. With `O=C(CSc1ccc(-c2nc3ccccc3[nH]2)cn1)Nc1ccc2c(c1)OCCO2` the activity change (PNC), negative = inhibition was inconclusive: -51.2%. With `CCOC(=O)c1nnn(-c2nonc2-c2ccccc2)c1C` the activity change (PNC), negative = inhibition was inconclusive: -52.4%. With `O=C(N/N=C/c1ccc(N2CCOCC2)o1)c1cccc(F)c1` the activity change (PNC), negative = inhibition was inconclusive: -50.8%. With `Cc1cc(/C=C2/NC(=O)N(c3ccccc3)C2=O)c(C)n1C(C)C` the activity change (PNC), negative = inhibition was inactive: -19%. With `CC1CN(C(=O)C2CCCC2)C(C)CN1C(=O)C1CCCC1` (configuration not stated) the activity change (PNC), negative = inhibition was inconclusive: -44%. With `O=C(NC1CCCCC1)C1CCN(c2nccs2)CC1` the activity change (PNC), negative = inhibition was inactive: 7.36%. In the case of `O=C(OCn1nnc2ccccc2c1=O)c1ccc2ncsc2c1`, the activity change (PNC), negative = inhibition was inactive: 2.65%. For `CCOC(=O)c1c(-c2ccc(C)o2)csc1NC(=O)CN1CCOCC1`, the activity change (PNC), negative = inhibition was inconclusive: -42.4%. In the case of `O=C(O)C1CCCN1S(=O)(=O)c1ccc2ccccc2c1` (configuration not stated), the activity change (PNC), negative = inhibition was active: -100%. In the case of `Cc1nc(NC(=O)c2ccccc2)sc1-c1csc(NCc2ccccc2)n1`, the activity change (PNC), negative = inhibition was inconclusive: -32.3%. For `Cc1cc(NC(=O)COC(=O)COc2ccc3c(c2)CCC3)no1`, the activity change (PNC), negative = inhibition was inconclusive: -73.6%. In the case of `Cc1ccc(-c2nc(N)n(C(=O)Cc3ccccc3)n2)cc1`, the activity change (PNC), negative = inhibition was inconclusive: -40.8%. For `COc1cc(NC(=O)C2CCCN(S(=O)(=O)c3cccc4nsnc34)C2)cc(OC)c1` (configuration not stated), the activity change (PNC), negative = inhibition was inactive: 10.8%. In the case of `O=C(CSc1ccc2c(c1)OCCO2)Nc1ncc(Cl)cc1Cl`, the activity change (PNC), negative = inhibition was inconclusive: -46.5%. In the case of `CC(=O)c1cn(CC(=O)NCc2cccnc2)c2ccccc12`, the activity change (PNC), negative = inhibition was inconclusive: -41.8%. For `O=C(Nc1cccc(Cl)c1)ON=C1c2ccccc2-c2ccccc21`, the activity change (PNC), negative = inhibition was inactive: -14.1%. In the case of `COc1ccc(NC(=O)COC(=O)CCCOc2ccc(Cl)cc2Cl)cc1`, the activity change (PNC), negative = inhibition was inconclusive: -53.5%. In the case of `COc1ccccc1NC1=NC(c2ccc(Cl)cc2)N=C(N)N1` (configuration not stated), the activity change (PNC), negative = inhibition was active: -92.7%. In the case of `O=C(NC1(C(F)(F)F)C(=O)Nc2c1c(=O)[nH]c(=O)n2Cc1ccco1)C1CC1` (configuration not stated), the activity change (PNC), negative = inhibition was inconclusive: -37.2%. In the case of `Nc1nnc(CCOc2ccc(Cl)cc2)s1`, the activity change (PNC), negative = inhibition was inconclusive: -56%. For `O=C(NCCOC(=O)c1ccc(Cl)cc1)c1cccnc1`, the activity change (PNC), negative = inhibition was inactive: 30.2%. For `CCOC(=O)c1c(N2C(=O)C3CC(C)=C(C)CC3C2=O)sc(C)c1C` (configuration not stated), the activity change (PNC), negative = inhibition was inconclusive: -42%. With `O=C(Cc1cn2ccsc2n1)Nc1nc2c(s1)CN(Cc1ccccc1)CC2` the activity change (PNC), negative = inhibition was inactive: 1.84%. With `O=C(CC1(O)C(=O)N(C/C=C/c2ccccc2)c2ccccc21)c1ccccn1` (configuration not stated) the activity change (PNC), negative = inhibition was inconclusive: -44%. For `Cc1cccc(NS(=O)(=O)c2ccc(C3CCCCC3)cc2)c1`, the activity change (PNC), negative = inhibition was inconclusive: -45.5%. In the case of `CCOCCOCCC(C(=O)O)P(=O)(c1ccccc1)c1ccccc1` (configuration not stated), the activity change (PNC), negative = inhibition was inconclusive: -30.5%. With `COc1cc(/C=C(\NC(C)=O)C(=O)Nc2ccc(NC(C)=O)cc2)ccc1OC(C)=O` the activity change (PNC), negative = inhibition was inactive: 27.1%. For `Cc1ccc2cc(CN(CCCN3CCOCC3)C(=O)NC3CCCCC3)c(=O)[nH]c2c1C`, the activity change (PNC), negative = inhibition was inconclusive: -37.7%. In the case of `COC(=O)c1ccccc1NC(=O)CCS(=O)(=O)c1ccc(Br)s1`, the activity change (PNC), negative = inhibition was inconclusive: -42.8%. With `CCc1cc(C(=O)O)c(NC(=O)C(c2ccccc2)c2ccccc2)s1` the activity change (PNC), negative = inhibition was inactive: -2.8%. With `CCOC(=O)N1CCC(NC(=O)c2cc3cc4cc(OC)ccc4nc3o2)CC1` the activity change (PNC), negative = inhibition was inconclusive: -37.3%. In the case of `NS(=O)(=O)c1cccc(NC(=O)CSc2ccccn2)c1`, the activity change (PNC), negative = inhibition was inconclusive: -32.4%. In the case of `O=C(c1ccco1)N1CCN(CC(=O)N2c3ccccc3CCc3ccccc32)CC1`, the activity change (PNC), negative = inhibition was inactive: 19.6%. For `c1ccc(-c2csc(NNC3=NCCCCC3)n2)cc1`, the activity change (PNC), negative = inhibition was inactive: -22.7%.
